No constants are given. Whether binding was seen depends on the method and setting. Binding seen in cells or lysates may run through a third protein. These calls come from enrichment with a bait or labelling near it, and not all partners need be listed. Tags and fused reporters may be left off the sequences shown.

Amino acid sequences for entries named in this document (tags omitted).
UniProt P08670: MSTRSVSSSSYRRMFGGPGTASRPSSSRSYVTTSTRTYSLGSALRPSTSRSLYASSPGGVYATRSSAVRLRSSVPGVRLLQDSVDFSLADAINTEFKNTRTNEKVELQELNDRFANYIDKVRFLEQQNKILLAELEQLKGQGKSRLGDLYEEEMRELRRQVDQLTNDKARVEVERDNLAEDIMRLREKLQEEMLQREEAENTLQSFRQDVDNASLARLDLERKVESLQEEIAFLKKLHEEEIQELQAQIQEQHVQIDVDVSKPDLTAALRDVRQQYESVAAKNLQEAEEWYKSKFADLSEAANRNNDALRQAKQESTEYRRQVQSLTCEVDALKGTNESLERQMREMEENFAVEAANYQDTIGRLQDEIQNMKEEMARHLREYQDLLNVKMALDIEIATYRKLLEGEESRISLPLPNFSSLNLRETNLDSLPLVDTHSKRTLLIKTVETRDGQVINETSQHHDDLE

First the molecules themselves.
B1: Scyl1 (protein, UniProt Q96KG9 1-808)
chain: MWFFARDPVRDFPFELIPEPPEGGLPGPWALHRGRKKATGSPVSIFVYDVKPGAEEQTQVAKAAFKRFKTLRHPNILAYIDGLETEKCLHVVTEAVTPLGIYLKARVEAGGLKELEISWGLHQIVKALSFLVNDCSLIHNNVCMAAVFVDRAGEWKLGGLDYMYSAQGNGGGPPRKGIPELEQYDPPELADSSGRVVREKWSADMWRLGCLIWEVFNGPLPRAAALRNPGKIPKTLVPHYCELVGANPKVRPNPARFLQNCRAPGGFMSNRFVETNLFLEEIQIKEPAEKQKFFQELSKSLDAFPEDFCRHKVLPQLLTAFEFGNAGAVVLTPLFKVGKFLSAEEYQQKIIPVVVKMFSSTDRAMRIRLLQQMEQFIQYLDEPTVNTQIFPHVVHGFLDTNPAIREQTVKSMLLLAPKLNEANLNVELMKHFARLQAKDEQGPIRCNTTVCLGKIGSYLSASTRHRVLTSAFSRATRDPFAPSRVAGVLGFAATHNLYSMNDCAQKILPVLCGLTVDPEKSVRDQAFKAIRSFLSKLESVSEDPTQLEEVEKDVHAASSPGMGGAAASWAGWAVTGVSSLTSKLIRSHPTTAPTETNIPQRPTPEGVPAPAPTPVPATPTTSGHWETQEEDKDTAEDSSTADRWDDEDWGSLEQEAESVLAQQDDWSTGGQVSRASQVSNSDHKSSKSPESDWSSWEAEGSWEQGWQEPSSQEPPPDGTRLASEYNWGGPESSDKGDPFATLSARPSTQPRPDSWGEDNWEGLETDSRQVKAELARKKREERRREMEAKRAERKVAKGPMKLGARKLD
B2: COPI subunit γ2-COP (protein, UniProt Q9UBF2 1-871)
chain: MIKKFDKKDEESGSGSNPFQHLEKSAVLQEARIFNETPINPRRCLHILTKILYLLNQGEHFGTTEATEAFFAMTRLFQSNDQTLRRMCYLTIKEMATISEDVIIVTSSLTKDMTGKEDVYRGPAIRALCRITDGTMLQAIERYMKQAIVDKVSSVSSSALVSSLHMMKISYDVVKRWINEAQEAASSDNIMVQYHALGVLYHLRKNDRLAVSKMLNKFTKSGLKSQFAYCMLIRIASRLLKETEDGHESPLFDFIESCLRNKHEMVIYEAASAIIHLPNCTARELAPAVSVLQLFCSSPKPALRYAAVRTLNKVAMKHPSAVTACNLDLENLITDSNRSIATLAITTLLKTGSESSVDRLMKQISSFVSEISDEFKVVVVQAISALCQKYPRKHSVMMTFLSNMLRDDGGFEYKRAIVDCIISIVEENPESKEAGLAHLCEFIEDCEHTVLATKILHLLGKEGPRTPVPSKYIRFIFNRVVLENEAVRAAAVSALAKFGAQNESLLPSILVLLQRCMMDTDDEVRDRATFYLNVLQQRQMALNATYIFNGLTVSVPGMEKALHQYTLEPSEKPFDMKSIPLAMAPVFEQKAEITLVATKPEKLAPSRQDIFQEQLAAIPEFLNIGPLFKSSEPVQLTEAETEYFVRCIKHMFTNHIVFQFDCTNTLNDQLLEKVTVQMEPSDSYEVLSCIPAPSLPYNQPGICYTLVRLPDDDPTAVAGSFSCTMKFTVRDCDPNTGVPDEDGYDDEYVLEDLEVTVSDHIQKVLKPNFAAAWEEVGDTFEKEETFALSSTKTLEEAVNNIITFLGMQPCERSDKVPENKNSHSLYLAGIFRGGYDLLVRSRLALADGVTMQVTVRSKERTPVDVILASVG

This assay addresses T1, GORAB fused to the biotin ligase BirA (UniProt Q5T7V8).
T1 sequence: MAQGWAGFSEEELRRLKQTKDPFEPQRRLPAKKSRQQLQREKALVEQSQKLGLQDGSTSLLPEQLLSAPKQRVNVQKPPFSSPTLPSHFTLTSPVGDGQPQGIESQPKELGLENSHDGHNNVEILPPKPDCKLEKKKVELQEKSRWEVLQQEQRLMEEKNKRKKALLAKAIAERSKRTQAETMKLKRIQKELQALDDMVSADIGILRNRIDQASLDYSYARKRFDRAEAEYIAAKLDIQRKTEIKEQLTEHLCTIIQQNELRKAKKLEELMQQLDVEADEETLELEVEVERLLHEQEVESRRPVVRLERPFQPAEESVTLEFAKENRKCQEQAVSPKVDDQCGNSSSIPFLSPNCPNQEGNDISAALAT
As to the kind of experiment: proximity labelling; BioID: GORAB–BirA stably expressed in HeLaM cells or human skin fibroblasts, 50 µM biotin for 24 h; biotinylated proteins collected on streptavidin-Dynabeads, on-bead tryptic digest, LC-MS/MS.
Regarding Vimentin (from UniProt P08670 1-466), the binding entry is “binds”.
Turning to B1, the binding entry is reported as “binds”.
With B2, the binding entry was “binds”.

The record behind these values is article PMC10617613.
